# Measurements from PubChem BioAssay AID2685 (National Center for Advancing Translational Sciences (NCATS), 2010).
# This is one part of the list. Further columns of the screen follow, without active or inactive calls. Most of these compounds were active or inconclusive in the main read-out, so they are no random draw. Words in brackets tell the shape of the fitted curve; partial curves, single points and poor fits give uncertain potencies.
# Experiment: qHTS Assay for Lipid Storage Modulators in Drosophila S3 Cells;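 as to cell number change: cells counted by Cell Tracker Red CMTPX staining in the red channel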
# Details: BODIPY lipid droplet fluorescence, 18-24 h; for cell number change: measured here: cell count max response, cells fed with added oleic acid
# How it was run: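 Drosophila S3 cells got compounds at several concentrations plus oleic acid (400 uM solution). Laser-scanning cytometry with 488 nm excitation read lipid droplets at 500-530 nm and cells at 575-640 nm. Percent activity was relative to 20 uM Triacsin C.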
# [1] = measured here: cell number channel AC50, cells fed with added oleic acid
# [2] = measured here: lipid fluorescence (Fed channel) AC50, cells fed with added oleic acid
SMILES,cell number change [%],AC50 [1],AC50 [2]
O=C(c1cc(-c2ccncc2)nc2ccc(Cl)cc12)N1CCN(Cc2ccc3c(c2)OCO3)CC1,21.8,"0.411 µM [rising, full curve, poor fit]",
CCOC(=O)c1ccc(Nc2ccc([N+](=O)[O-])cn2)cc1,0.905,,"0.731 µM [falling, full curve, poor fit]"
Cc1ccc(Cl)cc1N1CCN(S(=O)(=O)N2CCCCC2)CC1,5.55,,"6.51 µM [falling, single point]"
CCOc1cc(/C=C2\C(=N)N3N=C(CC)SC3=NC2=O)ccc1OCCOc1ccc(NC(C)=O)cc1,1.39,"0.58 µM [rising, single point]","13 µM [rising, partial curve]"
Cc1cc(C)n2c(SCC(=O)NC3CCCC(C)C3C)nnc2n1 (centres undefined),2.03,,"29.1 µM [falling, partial curve, poor fit]"
COCCN(Cc1cc2cc3c(cc2nc1Cl)OCO3)C(=O)c1cccc(C)c1,-23.9,,"23.1 µM [falling, single point]"
O=C(CSc1nc2ccc(Cl)cc2[nH]1)Nc1ccc2c(c1)CCC2,-54.4,"20.6 µM [falling, partial curve]","1.84 µM [falling, partial curve, poor fit]"
CO/N=C/NC(=O)NOCc1c(Cl)cccc1Cl,17,"6.51 µM [rising, single point]","23.1 µM [rising, partial curve]"
Cc1cc(=O)[nH]c(SCC(=O)Nc2cccc3ccccc23)c1C#N,17.8,,"6.51 µM [falling, single point]"
O=C(c1cccc(Cl)c1)N1CCCc2ccccc21,0.88,,
C=CCn1c2ccccc2c2nnc(SCCN3CCOCC3)nc21,18.2,,
O=C(CSCc1ccc([N+](=O)[O-])cc1)NC1CC1,-8.73,,"1.46 µM [falling, full curve, poor fit]"
Cc1ccn2c(=O)c(C(=O)NCCN3CCOCC3)c(O)nc2c1,,,"6.51 µM [falling, single point]"
COc1ccc(NC2CCCN(C(=O)CCCn3cncn3)C2)cc1OC (centres undefined),5.34,,
Cc1ccc(C(=O)/C=C/Nc2ccc(S(=O)(=O)Nc3onc(C)c3C)cc2)cc1,-19.9,"2.91 µM [rising, partial curve]","4.11 µM [falling, single point]"
COC(=O)c1cnn(-c2ccccc2)c1/C=N/NC(=S)Nc1ccc(Cl)cc1,12,,"0.231 µM [rising, full curve, poor fit]"
O=[N+]([O-])c1ccccc1OCCCN1CCc2ccccc2C1,-2.65,,"0.58 µM [falling, single point]"
O=c1n(Cc2ccc(Cl)cc2)c2sc3c(c2c2ncnn12)CCCC3,-20.8,,
COc1ccc(-c2noc(CN(C)C(=O)c3ccoc3C)n2)cc1,6.96,,
CCOC(=O)N1CCC(NCCNC(=O)c2cccs2)CC1,4.77,,"29.1 µM [rising, single point]"

SMILES,cell number change [%],AC50 [1],AC50 [2]
CC(C)CC(=O)Nc1sc2c(c1C(=O)O)CCCCC2,-2.87,"6.51 µM [falling, single point]","6.51 µM [falling, single point]"
CN(C)c1ccc(Sc2nnc(NC(=O)Nc3ccc(Cl)cc3Cl)s2)cc1,-6.33,,"0.291 µM [falling, full curve]"
Cc1ccc(S(=O)(=O)N2CCN(C(=O)CC(C)n3cncn3)CC2)cc1C (centres undefined),1.3,,"0.58 µM [rising, single point]"
CCOC(=O)c1c(C)sc2c1N(C(=O)CN1CCOCC1)c1cc(Cl)ccc1S2,3.23,,
Nc1c(C(=O)NCc2ccco2)c2nc3ccccc3nc2n1CCc1ccc(F)cc1,-4.49,"2.06 µM [rising, partial curve]","1.16 µM [rising, full curve]"
Cn1c(=NC(=O)C2CC2)sc2cccc(F)c21,6.5,,"4.61 µM [rising, full curve]"
CCOC(=O)COc1ccc(Cl)cc1C1NC(=O)NC(C)=C1C(C)=O (centres undefined),40.7,"2.31 µM [rising, partial curve]",
COCCCNC(=O)c1cc(OC)c(OC)c(OC)c1,,,"20.6 µM [falling, partial curve]"
COc1ccc(C(=O)N2CCCC(c3nc(-c4ccc(OC)c(OC)c4)no3)C2)c(OC)c1 (centres undefined),-6.89,,
CN(Cc1ccccc1)C(=S)NC(=O)c1cccs1,-10.4,,"0.651 µM [falling, partial curve, poor fit]"
CCN1C(=O)[C@H]2[C@@H](c3ccc(-c4ccc(OC)cc4)cc3)N[C@@](C)(C(=O)OC)[C@H]2C1=O,14.3,,
Cc1ccc(C(C(=O)Nc2ccc(C(C)C)cc2)N(C)C(=O)c2ccc(=O)[nH]c2)cc1 (centres undefined),-3.37,,"0.00517 µM [falling, full curve, poor fit]"
CCOc1ccc(/C=C2/Sc3ccc(C(=O)N4CCOCC4)cc3N(C)C2=O)cc1OC,,,"29.1 µM [falling, single point]"
COc1ccc(C)cc1N(C(=O)c1snc(C(N)=O)c1N)C(C(=O)NC1CCCC1)c1ccc(F)cc1 (centres undefined),8.7,,
COc1ccc(C(=O)Nc2cccnc2)cc1S(=O)(=O)N1CCOCC1,-17,,
CS(=O)(=O)N(CC(=O)Nc1ccc(Br)cc1)C1CCCCC1,-24,,"0.92 µM [falling, partial curve]"
COc1ccc(N2CCN(CC(O)COc3ccc([N+](=O)[O-])cc3)CC2)cc1 (centres undefined),0.746,,"2.59 µM [rising, single point]"
CC1(c2nnc(-c3ccccc3)o2)CC(c2ccncc2)=NO1 (centres undefined),18.6,,"8.2 µM [rising, single point]"
O=C(c1cc(-c2ccco2)on1)N1CCCc2ccccc21,18.5,,"2.31 µM [rising, partial curve]"
O=c1cc(-c2ccccc2)nc2nc(-c3ccccc3)[nH]n12,-51.1,"25.9 µM [falling, single point]","0.651 µM [falling, single point]"

# Among those listed so far, these contain an NH in an aromatic ring.
SMILES,cell number change [%],AC50 [1],AC50 [2]
O=C(CSc1nc2ccc(Cl)cc2[nH]1)Nc1ccc2c(c1)CCC2,-54.4,"20.6 µM [falling, partial curve]","1.84 µM [falling, partial curve, poor fit]"
Cc1cc(=O)[nH]c(SCC(=O)Nc2cccc3ccccc23)c1C#N,17.8,,"6.51 µM [falling, single point]"
Cc1ccc(C(C(=O)Nc2ccc(C(C)C)cc2)N(C)C(=O)c2ccc(=O)[nH]c2)cc1 (centres undefined),-3.37,,"0.00517 µM [falling, full curve, poor fit]"
O=c1cc(-c2ccccc2)nc2nc(-c3ccccc3)[nH]n12,-51.1,"25.9 µM [falling, single point]","0.651 µM [falling, single point]"
